This experiment is described as follows: qHTS Assay for Lipid Storage Modulators in Drosophila S3 Cells.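 For cell number change: cells counted by Cell Tracker Red CMTPX staining in the red channel.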 The following applies: BODIPY lipid droplet fluorescence, 18-24 h; for cell number change: measured here: cell count max response, cells fed with added oleic acid. The essentials: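 Drosophila S3 cells got compounds at several concentrations plus oleic acid (400 uM solution). Laser-scanning cytometry with 488 nm excitation read lipid droplets at 500-530 nm and cells at 575-640 nm. Percent activity was relative to 20 uM Triacsin C.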
For orientation: qHTS replaces the single test concentration by a dilution series.

[1] abbreviates: measured here: cell number channel AC50, cells fed with added oleic acid.
Setting [2] is: measured here: lipid fluorescence (Fed channel) AC50, cells fed with added oleic acid.

SMILES strings stand for the structures. This is one part of the list. These are further read-outs of the screen, such as a control signal, another cell line or another target. No call is given for them. Most of these compounds were active or inconclusive in the main read-out, so they are no random draw. Potencies come from curve fits of mixed quality, noted in brackets.

In the case of `CN(c1ccccc1)S(=O)(=O)c1ccc(C(=O)Nc2ccncc2)cc1`, the cell number change is -12.9%.
As usually defined, the AC50 is the midpoint of the concentration-response curve, whichever way the signal moves. As for `COc1cc(/C=C/C(O)=C/C(=O)/C=C/c2ccc(O)cc2)ccc1O`, the cell number change is -39%. For the same compound, the AC50 under setting [1] is 14.6 µM [falling, partial curve]. For the same compound, the AC50 under setting [2] was 29.1 µM [falling, single point].
Regarding `CC(C)(C)c1ccc(CSc2ccc(S(=O)(=O)N3CCOCC3)cn2)cc1`, the cell number change is 0.551%. For the same compound, under setting [1], the AC50 is 5.17 µM [falling, single point]. In addition, under setting [2], the AC50 is 7.31 µM [falling, partial curve, poor fit].
Take `CC(Sc1nnc(-c2cccs2)n1N)C(=O)NCC1CCCO1` (stereo not drawn): the cell number change was 1.68%. Also, the AC50 under setting [2] is 32.6 µM [falling, partial curve, poor fit].
With `CCCc1cc(NCc2ccccn2)n2c(nc3ccccc32)c1C#N`, the AC50 under setting [2] was 0.00461 µM [rising, full curve, poor fit].
Same read-out and setting: the value for `Cc1cc(C)cc(NC(=O)c2nnn(Cc3cc(C)ccc3C)c2N)c1` was 1.3 µM [rising, partial curve].
As to `O=C(CNS(=O)(=O)c1cccs1)N1CCCCC1`, the cell number change came to 0.87%.
In the case of `O=C(COc1nc2ccccc2nc1N1CCOCC1)N1CCc2ccccc21`, the cell number change came to 0.136%.
As to `CCN(Cc1cc2ccc(C)cc2[nH]c1=O)C(=O)c1cccnc1`, the cell number change was 31.6%. For the same compound, under setting [1], the AC50 is 0.461 µM [rising, full curve]. Moreover, under setting [2], the AC50 was 1.3 µM [rising, full curve, poor fit].
On to `C#Cc1ccc(C(=O)Nc2cc(C(N)=O)ccc2N2CCOCC2)cc1`, for which the cell number change is -19.2%. Moreover, the AC50 under setting [2] is 6.51 µM [rising, partial curve, poor fit].
Consider `O=c1[nH]cccc1-c1nc2ccccc2n1Cc1cccc(Cl)c1`, for which the cell number change came to 15.6%. Moreover, the AC50 under setting [2] is 32.6 µM [rising, single point].
For `N#CCSc1nc2c(cc1C#N)CCCC2`, the cell number change was 60.3%. Besides, the AC50 under setting [1] was 29.1 µM [rising, single point]. Besides, under setting [2], the AC50 is 4.11 µM [rising, single point].
For the compound `CN(C)S(=O)(=O)c1ccc2nc(NC(=O)c3cccnc3)sc2c1`, the cell number change is -2.86%. Also, under setting [1], the AC50 was 0.651 µM [rising, single point].
On to `Cc1cccc(NC(=O)c2cnn3ccccc23)c1C`, for which the cell number change was 17.9%. For the same compound, under setting [2], the AC50 was 29.1 µM [rising, single point].
Consider `Cc1ccc(S(=O)(=O)NCC2COc3ccccc3O2)cc1` (stereo not drawn), for which the cell number change was 5.24%. Under setting [2], the AC50 is 3.66 µM [rising, partial curve].
For the compound `COc1ccc(NC(=O)CN(C)C(=O)c2cccc(S(=O)(=O)N3CC4(C)CC3CC(C)(C)C4)c2)cc1` (stereo not drawn), the cell number change is -84.1%. In addition, the AC50 under setting [1] was 29.1 µM [falling, single point].
In the case of `CC1=C(C#N)C(NC(=O)c2cccc(Cl)c2)(C(F)(F)F)C(=O)N1` (stereo not drawn), the cell number change is 93.9%. The AC50 under setting [1] was 20.6 µM [rising, single point]. Further, the AC50 under setting [2] is 5.17 µM [falling, full curve, poor fit].
Regarding `C/C(=N\O)c1ccccc1C(=O)O`, the cell number change was -50.8%. Also, under setting [1], the AC50 was 29.1 µM [falling, single point].
Regarding `COc1ccc(N(C(=O)Cc2cccs2)C(C(=O)NC2CCCC2)c2ccncc2)cc1` (stereo not drawn), the cell number change is -15.4%.
For the compound `CC1(O)CC(c2ccc(Cl)cc2)=NN1C(=O)c1ccc(Cl)cc1` (stereo not drawn), the cell number change came out at 15.2%. Besides, the AC50 under setting [2] is 29.1 µM [falling, single point].
Take `CC1CCN(S(=O)(=O)c2ccc(NC(=O)C3CC(=O)N(c4ccccc4)C3)cc2)CC1` (stereo not drawn): the AC50 under setting [2] is 0.326 µM [falling, full curve, poor fit].
As for `COc1cccc(C(=O)NCC2CCCN(C3CCCCC3)C2)c1OC` (stereo not drawn), the cell number change stood at 2.2%. In addition, under setting [2], the AC50 is 6.51 µM [falling, single point].
For the compound `CCc1ccc(C2NC(C(=O)O)CS2)cc1` (stereo not drawn), the cell number change was -40.5%. The AC50 under setting [1] was 29.1 µM [falling, single point].
As for `CN(c1ccccc1)S(=O)(=O)c1ccc(C(=O)NNC(=O)c2ccccc2F)cc1`, the cell number change is -1.88%. Also, the AC50 under setting [2] was 20.6 µM [rising, single point].
For the compound `Cc1ccc(OCC(=O)NCCNC(=O)c2ccccn2)cc1`, the cell number change is -25.7%.
Consider `CCCCn1c(C)cc2c(c1=O)C1O[C@](c3ccsc3)(Cc3ccccc31)O2`, for which the cell number change is -12.9%. Under setting [2], the AC50 is 1.19 µM [rising, single point].
In the case of `Cc1ccc(-c2nc3ccccc3n2C)o1`, the cell number change was 170%. The AC50 under setting [1] was 9.2 µM [rising, partial curve]. Further, the AC50 under setting [2] was 18.4 µM [rising, partial curve].
`COc1cc(C[C@H](C)[C@H](C)Cc2ccc3c(c2)OCO3)ccc1O`: the cell number change was -32.8%. In addition, under setting [1], the AC50 was 16.4 µM [falling, single point].
As for `CCOCCCn1c(=S)[nH]c2cc(C(=O)N3CCN(C)CC3)ccc2c1=O`, the cell number change is -11.2%. The AC50 under setting [2] was 5.8 µM [falling, partial curve].
Take `COc1ccc(N/C=C\C(=O)c2ccc3c(c2)OCO3)cc1OC`: the cell number change is -40.2%. Further, under setting [2], the AC50 was 0.00411 µM [rising, full curve, poor fit].
Regarding `CNS(=O)(=O)/C=C/c1ccccc1`, the cell number change was -25.3%.
The same measure, in the same setting: the result for `Cc1ccc(-c2nc3[nH]c(=O)cc(NC(=O)C(C)C)n3n2)cc1` reads 17.8%.
For the compound `Nc1cc(C(F)(F)F)ccc1NCCc1ccccn1`, the cell number change was -28.4%. Besides, the AC50 under setting [2] was 20.6 µM [falling, single point].
Consider `Fc1ccc(N2CCN(C(=S)NCC3CCCO3)CC2)cc1` (stereo not drawn), for which the cell number change was found to be 101%.
For the compound `CCOCCCNC(=S)N1C2CCC1CC(NC(=O)NC13CC4CC(CC(C4)C1)C3)C2` (stereo not drawn), the cell number change was -30.5%. Further, under setting [2], the AC50 is 29.1 µM [falling, single point].
Turning to `CCCNC(=O)c1ccc2c(=O)c(O)c(-c3ccc(F)cc3)[nH]c2c1`, the AC50 under setting [2] was 16.4 µM [falling, partial curve].
With `CC(=O)Nc1ccc(S(=O)(=O)NCC(=O)OCC(=O)N2CCc3ccccc32)cc1`, the cell number change was 32.1%. For the same compound, the AC50 under setting [1] was 29.1 µM [rising, single point].
In the case of `CCCCCC(=O)c1ccc(O)cc1O`, the cell number change turned out to be 21.7%. The AC50 under setting [2] was 4.11 µM [rising, full curve].
With `Cc1oc(-c2ccc(Cl)cc2)nc1CS(=O)CC(=O)NC(C)c1ccccc1` (stereo not drawn), the cell number change is -16.7%.
As to `Cc1nnc(N2CCCC(C(=O)NCc3cccc(F)c3)C2)c2nn(-c3ccccc3)c(C)c12` (stereo not drawn), the cell number change came out at 25.9%. Further, the AC50 under setting [1] was 0.0411 µM [rising, full curve, poor fit]. The AC50 under setting [2] was 3.66 µM [rising, full curve].
In the case of `CCn1cc(S(=O)(=O)CC(=O)Nc2ccc(OC)cc2)c2ccccc21`, the cell number change came out at 13.1%. Also, the AC50 under setting [2] is 4.11 µM [rising, single point].
With `COc1cccc(/C=C/C(=O)Nc2cccc(C(C)=O)c2)c1OC`, the cell number change came out at 18.6%. Further, under setting [2], the AC50 is 6.51 µM [falling, single point].
Consider `CCOC(=O)c1[nH]c(COC(=O)c2ccccc2NC(=O)c2ccco2)c(C(=O)OCC)c1C`, for which the cell number change is 23.2%. The AC50 under setting [1] was 0.82 µM [rising, full curve, poor fit].
Regarding `CCc1ccc(S(=O)(=O)Nc2c(C)n(C)n(-c3ccccc3)c2=O)cc1`, the cell number change worked out at 4.17%. In addition, the AC50 under setting [2] was 29.1 µM [rising, single point].
Regarding `CCOc1ccccc1NC(=O)N1CCCC1C(=O)NCc1cccs1` (stereo not drawn), the cell number change was found to be 17.1%. For the same compound, under setting [2], the AC50 is 0.651 µM [rising, single point].
For `N/C(Cc1ccc([N+](=O)[O-])cc1)=N\OC(=O)CC1CCCCC1`, the cell number change stood at 117%. Also, under setting [1], the AC50 is 29.1 µM [rising, single point]. The AC50 under setting [2] was 0.058 µM [falling, full curve, poor fit].
Take `O=C(CCc1ccccc1)NC(NC(=S)Nc1ccc(Cl)cc1)C(Cl)(Cl)Cl` (stereo not drawn): the cell number change came to 50.7%. Further, the AC50 under setting [1] was 18.4 µM [rising, single point].
For `Cc1ccc(CS(=O)(=O)CCC(=O)O)cc1`, the cell number change was -21.4%. The AC50 under setting [2] was 1.16 µM [falling, full curve].
`CCOC(=O)N1CCN(C(=O)C2CCN(C(=O)c3ccc(C(C)(C)C)cc3)CC2)CC1`: the cell number change was -6.94%. The AC50 under setting [2] was 29.1 µM [rising, single point].
In the case of `Cc1ccc(NC(=O)OCCN2CCN(Cc3ccccc3)CCC2=O)cc1`, the cell number change was -14%. Under setting [2], the AC50 was 10.3 µM [rising, partial curve].
Take `Cc1cc2nc(NCCCO)n(CC(=O)c3cc(C(C)(C)C)c(O)c(C(C)(C)C)c3)c2cc1C`: the cell number change is -78.8%. Moreover, the AC50 under setting [1] was 20.6 µM [falling, partial curve].
Consider `COc1cc(NC(=O)c2ccc(Cl)cc2)c(OC)cc1NC(=O)CN1CCOCC1`, for which the cell number change is 5.63%. Further, the AC50 under setting [2] was 16.4 µM [rising, partial curve].
On to `Cn1c2c(c(=O)n(C)c1=O)C(c1ccc(Br)cc1)Nc1ccccc1O2` (stereo not drawn), for which the cell number change amounted to 39.4%. The AC50 under setting [1] was 0.0517 µM [rising, full curve, poor fit]. In addition, the AC50 under setting [2] was 7.31 µM [rising, partial curve, poor fit].
In the case of `CCc1nnc(NC(=O)Cn2nc(-c3ccc(OC)c(OC)c3)ccc2=O)s1`, the cell number change turned out to be 18.9%. Further, the AC50 under setting [2] is 2.06 µM [falling, full curve, poor fit].
As to `COc1ccc(-c2cc(C(F)(F)F)c(C#N)c(SCC(=O)Nc3ccc(C)cc3)n2)cc1`, the AC50 under setting [1] was 0.116 µM [rising, full curve].
As to `COc1ccc(-c2cn3cccnc3n2)cc1F`, the cell number change was 2.17%. Moreover, the AC50 under setting [1] is 0.731 µM [rising, single point].
Regarding `CCCN1CCN(c2ccc(S(N)(=O)=O)cc2[N+](=O)[O-])CC1`, the cell number change amounted to 3.65%. For the same compound, the AC50 under setting [2] was 20.6 µM [falling, single point].
As to `O=C(Nc1ccc(F)cc1)N(Cc1cccs1)Cc1cc2cc3c(cc2[nH]c1=O)OCO3`, the cell number change worked out at 10.2%. The AC50 under setting [2] was 0.116 µM [rising, full curve, poor fit].
Take `O=C(Nc1nnc(-c2cccs2)o1)c1ccco1`: the cell number change was -2.76%. In addition, the AC50 under setting [2] is 0.651 µM [falling, full curve, poor fit].
With `CN(C(=O)COC(=O)c1ccccc1Nc1ccccc1)C1CCS(=O)(=O)C1` (stereo not drawn), the cell number change was 3.47%. Besides, the AC50 under setting [2] is 16.4 µM [rising, single point].
Turning to `CCOc1ccc(CN2CCN(Cc3[nH]c4ccccc4c3C)CC2CCO)cc1` (stereo not drawn), the cell number change is -32.9%. In addition, the AC50 under setting [1] was 29.1 µM [falling, single point]. For the same compound, under setting [2], the AC50 was 18.4 µM [falling, single point].

For the origin of these results see PubChem BioAssay AID2685 (National Center for Advancing Translational Sciences (NCATS), 2010).
